Results on 37 variants are retold here after the supplement of paper PMC6445147.

This is a noisy data set.

B1: human tRNA-Pro; a variant is named by its letters at N, in order (parent)
chain: GGCTCGTTGGTCTAGNGGTATGATTCTCGCTTAGGGTGCGAGAGGTCCCGGGTTCNNATCCCGGACGAGCCC

The variants in data set [1] derive from B1. As to the kind of experiment: tRNA Pol-III promoter activity, log2 (circRNA frequency / plasmid DNA frequency) (log2 ratio); higher = stronger promoter activity. Conditions: HEK293T; construct: no Pol-II promoter ((-)CMV library).
The variants in data set [2] derive from B1. As to the kind of experiment: tRNA 3' processing efficiency (processed reads / all reads, maximum-likelihood estimate) (fraction); higher = more efficient 3' processing. Conditions: HEK293T; construct: no Pol-II promoter ((-)CMV library).
Data set [3] covers variants of B1. The data set is described as follows: tRNA 5' processing efficiency (processed reads / all reads, maximum-likelihood estimate) (fraction); higher = more efficient 5' processing. Conditions: HEK293T; construct: CMV Pol-II promoter ((+)CMV library, decapped).

On to GGCTCGTTGGTCTGGGGGTCTGATTCTCGCTTAGGGTGCGAGAGGTCCCGGGGTCAAATCCCGGACGAGCCC [GAA A14G A20C T53G], for which, in data set [1], the “tRNA Pol-III promoter activity (log2)” value was 5.74. Moreover, the “tRNA 3' processing efficiency” value in data set [2] is 0.57.

As for GGCTCGTTGGTCTGGAGGTATGATTCTCGCTTAGGGTGCGAGAGGTCCCGGGTTCAAATCCCGGACGAGCCC [AAA A14G], in data set [1], the “tRNA Pol-III promoter activity (log2)” value was -0.932. The “tRNA 3' processing efficiency” value in data set [2] was 0.25.

In the case of GGCTCGTTGGTCTGGAGGTATGATTCTCGCTTAGGGTGCGAGAGGTCCCGGGTTCAATTCCCGGACGAGCCC [AAA A14G A58T], the “tRNA Pol-III promoter activity (log2)” value in data set [1] is 5.46. Also, the “tRNA 3' processing efficiency” value in data set [2] is 0.2.

As to GGCTCGTTGGTCTGGGGGTATGATTCTCGCTTAGGGTGCGAGAGGTCCCGGGTTCAACCCCCGGACGAGCCC [GAA A14G A58C T59C], the “tRNA Pol-III promoter activity (log2)” value in data set [1] worked out at 4.69. In addition, in data set [2], the “tRNA 3' processing efficiency” value was 0.35.

Turning to GGCTCGTTGGTCTGGGGGTATGATTCTCGCTTAGGGTGCGAGAGGTCCCGGGTTCAACACCCGGACGAGCCC [GAA A14G A58C T59A], the “tRNA Pol-III promoter activity (log2)” value in data set [1] was determined as 4.94. Besides, the “tRNA 3' processing efficiency” value in data set [2] is 0.6.

For the variant GGCTCGTTGGTCTGGGGGTGTGATTCTCGCTTAGGGTGCGAGAGGTCCCGGGTTCAAACCCCGGACGAGCCC [GAA A14G A20G T59C], the “tRNA Pol-III promoter activity (log2)” value in data set [1] worked out at 3.61. Moreover, the “tRNA 3' processing efficiency” value in data set [2] was 0.29. In addition, in data set [3], the “tRNA 5' processing efficiency” value is 0.25.

In the case of GGCTCGTTGGTCTGGGGGTATGATTCTCGCTTAGGGTGCGAGAGGTCCCGGGTTCAAATCCCGGACGAGCCC [GAA A14G], the “tRNA Pol-III promoter activity (log2)” value in data set [1] was -1.92. Also, the “tRNA 3' processing efficiency” value in data set [2] is 0.54. The “tRNA 5' processing efficiency” value in data set [3] was 0.31.

Regarding GGCTCGTTGGTCTGGGGGTTTGATTCTCGCTTAGGGTGCGAGAGGTCCCGGGTTCAAACCCCGGACGAGCCC [GAA A14G A20T T59C], the “tRNA Pol-III promoter activity (log2)” value in data set [1] stood at 4.62. Moreover, the “tRNA 3' processing efficiency” value in data set [2] is 0.5.

For the variant GGCTCGTTGGTCTGGGGGTTTGATTCTCGCTTAGGGTGCGAGAGGTCCCGGGTTCAACCCCCGGACGAGCCC [GAA A14G A20T A58C T59C], the “tRNA Pol-III promoter activity (log2)” value in data set [1] turned out to be 6.75. For the same variant, in data set [2], the “tRNA 3' processing efficiency” value was 0.14.

For GGCTCGTTGGTCTGGGGGTATGATTCTCGCTTAGGGTGCGAGAGGTCCCGGGTTCAAGTCCCGGACGAGCCC [GAA A14G A58G], the “tRNA Pol-III promoter activity (log2)” value in data set [1] was -1.21. Moreover, in data set [2], the “tRNA 3' processing efficiency” value was 0.25.

As to GGCTCGTTGGTCTGGGGGTATGATTCTCGCTTAGGGTGCGAGAGGTCCCGGGTTCAATTCCCGGACGAGCCC [GAA A14G A58T], the “tRNA Pol-III promoter activity (log2)” value in data set [1] came to 0.164. In addition, the “tRNA 3' processing efficiency” value in data set [2] is 0.26.

For the variant GGCTCGTTGGTCTGGGGGTATGATTCTCGCTTAGGGTGCGAGAGGTCCCGGGTTCAACTCCCGGACGAGCCC [GAA A14G A58C], in data set [1], the “tRNA Pol-III promoter activity (log2)” value stood at 2.25. In data set [2], the “tRNA 3' processing efficiency” value was 0.38.

As to GGCTCGTTGGTCTGGGGGTATGATTCTCGCTTAGGGTGCGAGAGGTCCCGGGTTCAAGGCCCGGACGAGCCC [GAA A14G A58G T59G], in data set [1], the “tRNA Pol-III promoter activity (log2)” value stood at 4.25. Besides, in data set [2], the “tRNA 3' processing efficiency” value was 0.28.

In the case of GGCTCGTTGGTCTGGGGGTATGATTCTCGCTTAGGGTGCGAGAGGTCCCGGGTTCAAGCCCCGGACGAGCCC [GAA A14G A58G T59C], the “tRNA Pol-III promoter activity (log2)” value in data set [1] was 3.06. Further, in data set [2], the “tRNA 3' processing efficiency” value was 0.47.

As to GGCTCGTTGGTCTGGGGGTATGATTCTCGCTTAGGGTGCGAGAGGTCCCGGGTTCAAGACCCGGACGAGCCC [GAA A14G A58G T59A], the “tRNA Pol-III promoter activity (log2)” value in data set [1] was determined as 6. Further, in data set [2], the “tRNA 3' processing efficiency” value is 0.31.

Consider GGCTCGTTGGTCTGGTGGTGTGATTCTCGCTTAGGGTGCGAGAGGTCCCGGGTGCAATTCCCGGACGAGCCC [TAA A14G A20G T54G A58T], for which the “tRNA Pol-III promoter activity (log2)” value in data set [1] was 3.53. Further, in data set [2], the “tRNA 3' processing efficiency” value was 0.33.

As for GGCTCGTTGGTCTGGGGGTGTGATTCTCGCTTAGGGTGCGAGAGGTCCCGGGTTGAAATCCCGGACGAGCCC [GAA A14G A20G C55G], in data set [1], the “tRNA Pol-III promoter activity (log2)” value amounted to 3.36. In data set [2], the “tRNA 3' processing efficiency” value is 0.25.

Take GGCTCGTTGGTCTGGGGGTGTGATTCTCGCTTAGGGTGCGAGAGGTCCCGGGTTCAAATCCCGGACGAGCCC [GAA A14G A20G]: the “tRNA Pol-III promoter activity (log2)” value in data set [1] amounted to 0.273. In addition, the “tRNA 3' processing efficiency” value in data set [2] was 0.67.

As for GGCTCGTTGGTCTGGGGGTTTGATTCTCGCTTAGGGTGCGAGAGGTCCCGGGTTCAAATCCCGGACGAGCCC [GAA A14G A20T], the “tRNA Pol-III promoter activity (log2)” value in data set [1] was 2.07. The “tRNA 3' processing efficiency” value in data set [2] was 0.21.

Take GGCTCGTTGGTCTCGTGGTATGATTCTCGCTTAGGGTGCGAGAGGTCCCGGGGTCAAAACCCGGACGAGCCC [TAA A14C T53G T59A]: the “tRNA Pol-III promoter activity (log2)” value in data set [1] was determined as 6.25. Further, the “tRNA 3' processing efficiency” value in data set [2] is 0.4.

With GGCTCGTTGGTCTGGCGGTATGATTCTCGCTTAGGGTGCGAGAGGTCCCGGGTTCAACTCCCGGACGAGCCC [CAA A14G A58C], the “tRNA Pol-III promoter activity (log2)” value in data set [1] stood at 6.38. In data set [2], the “tRNA 3' processing efficiency” value is 0.92.

For the variant GGCTCGTTGGTCTCGTGGTATGATTCTCGCTTAGGGTGCGAGAGGTCCCGGGTTCAAAGCCCGGACGAGCCC [TAA A14C T59G], in data set [1], the “tRNA Pol-III promoter activity (log2)” value worked out at 4.91. Besides, the “tRNA 3' processing efficiency” value in data set [2] was 0.1.

For the variant GGCTCGTTGGTCTGGCGGTATGATTCTCGCTTAGGGTGCGAGAGGTCCCGGGTTCAAATCCCGGACGAGCCC [CAA A14G], the “tRNA Pol-III promoter activity (log2)” value in data set [1] was found to be 1.02. In addition, the “tRNA 3' processing efficiency” value in data set [2] was 0.44.

For the variant GGCTCGTTGGTCTGGGGGTTTGATTCTCGCTTAGGGTGCGAGAGGTCCCGGGGTCAAAGCCCGGACGAGCCC [GAA A14G A20T T53G T59G], the “tRNA Pol-III promoter activity (log2)” value in data set [1] was determined as 6.94. Also, the “tRNA 3' processing efficiency” value in data set [2] is 0.62.

GGCTCGTTGGTCTCGGGGTATGATTCTCGCTTAGGGTGCGAGAGGTCCCGGGTTCAAAGCCCGGACGAGCCC [GAA A14C T59G]: the “tRNA Pol-III promoter activity (log2)” value in data set [1] was found to be 2.6. Also, the “tRNA 3' processing efficiency” value in data set [2] is 0.52.

Regarding GGCTCGTTGGTCTCGGGGTATGATTCTCGCTTAGGGTGCGAGAGGTCCCGGGTTCAAACCCCGGACGAGCCC [GAA A14C T59C], the “tRNA Pol-III promoter activity (log2)” value in data set [1] turned out to be 3.06. Besides, the “tRNA 3' processing efficiency” value in data set [2] is 0.36.

In the case of GGCTCGTTGGTCTCGGGGTATGATTCTCGCTTAGGGTGCGAGAGGTCCCGGGTTCAAAACCCGGACGAGCCC [GAA A14C T59A], the “tRNA Pol-III promoter activity (log2)” value in data set [1] turned out to be 2.44. Further, the “tRNA 3' processing efficiency” value in data set [2] was 0.46.

For GGCTCGTTGGTCTGGGGGTTTGATTCTCGCTTAGGGTGCGAGAGGTCCCGGGTTCAACTCCCGGACGAGCCC [GAA A14G A20T A58C], the “tRNA Pol-III promoter activity (log2)” value in data set [1] turned out to be 2.8. Moreover, the “tRNA 3' processing efficiency” value in data set [2] was 0.2.

GGCTCGTTGGTCTCGGGGTATGATTCTCGCTTAGGGTGCGAGAGGTCCCGGGTACAAATCCCGGACGAGCCC [GAA A14C T54A]: the “tRNA Pol-III promoter activity (log2)” value in data set [1] stood at 1.24. In addition, the “tRNA 3' processing efficiency” value in data set [2] is 0.2.

Consider GGCTCGTTGGTCTGGGGGTCTGATTCTCGCTTAGGGTGCGAGAGGTCCCGGGTTCAACTCCCGGACGAGCCC [GAA A14G A20C A58C], for which, in data set [1], the “tRNA Pol-III promoter activity (log2)” value was 7.7. In addition, the “tRNA 3' processing efficiency” value in data set [2] is 0.93.

As for GGCTCGTTGGTCTGGTGGTATGATTCTCGCTTAGGGTGCGAGAGGTCCCGGGTTCAAATCCCGGACGAGCCC [TAA A14G], the “tRNA Pol-III promoter activity (log2)” value in data set [1] is -0.314. Moreover, the “tRNA 3' processing efficiency” value in data set [2] was 0.53.

Turning to GGCTCGTTGGTCTGGTGGTTTGATTCTCGCTTAGGGTGCGAGAGGTCCCGGGGTCAAATCCCGGACGAGCCC [TAA A14G A20T T53G], the “tRNA Pol-III promoter activity (log2)” value in data set [1] amounted to 5.74. For the same variant, the “tRNA 3' processing efficiency” value in data set [2] is 0.14.

As for GGCTCGTTGGTCTGGGGGTATGATTCTCGCTTAGGGTGCGAGAGGTCCCGGGTTCAATGCCCGGACGAGCCC [GAA A14G A58T T59G], the “tRNA Pol-III promoter activity (log2)” value in data set [1] amounted to 3.07. In addition, the “tRNA 3' processing efficiency” value in data set [2] was 0.17.

For GGCTCGTTGGTCTGGGGGTATGATTCTCGCTTAGGGTGCGAGAGGTCCCGGGTTCAATCCCCGGACGAGCCC [GAA A14G A58T T59C], the “tRNA Pol-III promoter activity (log2)” value in data set [1] is 3.02. The “tRNA 3' processing efficiency” value in data set [2] was 0.25.

As for GGCTCGTTGGTCTGGTGGTATGATTCTCGCTTAGGGTGCGAGAGGTCCCGGGTTCAATTCCCGGACGAGCCC [TAA A14G A58T], the “tRNA Pol-III promoter activity (log2)” value in data set [1] is 3.94. The “tRNA 3' processing efficiency” value in data set [2] was 0.53.

GGCTCGTTGGTCTCGCGGTATGATTCTCGCTTAGGGTGCGAGAGGTCCCGGGTTCAAAACCCGGACGAGCCC [CAA A14C T59A]: in data set [1], the “tRNA Pol-III promoter activity (log2)” value worked out at 3.71. Further, in data set [2], the “tRNA 3' processing efficiency” value is 0.25.

Turning to GGCTCGTTGGTCTCGAGGTATGATTCTCGCTTAGGGTGCGAGAGGTCCCGGGTTCAAAGCCCGGACGAGCCC [AAA A14C T59G], in data set [1], the “tRNA Pol-III promoter activity (log2)” value was found to be 4.39. In addition, in data set [2], the “tRNA 3' processing efficiency” value was 0.73.
